Source: paper PMC12499447
Results are given in words; binding and its absence hold for the method and conditions named. Binding seen in cells or lysates may run through a third protein. Some entries that bind do so weakly or less than the wild type. Tags and fused reporters may be left off the sequences shown.

Target: T1, API5^WT, exogenous (tag not told for these experiments) (human) (UniProt Q9BZZ5)
T1 sequence: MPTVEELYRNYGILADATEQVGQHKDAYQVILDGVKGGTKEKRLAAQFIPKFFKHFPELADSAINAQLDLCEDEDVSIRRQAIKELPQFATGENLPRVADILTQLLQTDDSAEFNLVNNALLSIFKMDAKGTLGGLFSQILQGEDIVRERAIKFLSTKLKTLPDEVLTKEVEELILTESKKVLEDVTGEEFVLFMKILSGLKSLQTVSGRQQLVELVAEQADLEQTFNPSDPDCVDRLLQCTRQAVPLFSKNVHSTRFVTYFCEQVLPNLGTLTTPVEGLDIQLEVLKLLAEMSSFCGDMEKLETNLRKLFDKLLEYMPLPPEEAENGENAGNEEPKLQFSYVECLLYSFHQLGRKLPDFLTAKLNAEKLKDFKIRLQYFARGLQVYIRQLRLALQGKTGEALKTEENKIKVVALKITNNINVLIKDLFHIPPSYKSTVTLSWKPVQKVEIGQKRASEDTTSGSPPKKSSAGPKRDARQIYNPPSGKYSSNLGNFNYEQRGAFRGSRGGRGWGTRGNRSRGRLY
Assay: co-IP; candidate kinases predicted by GPS 6.0 screened against API5 (Figures S7 and S8B); constructs and cells not shown

B1: PRKCI (candidate kinase in the co-IP screen) (enzyme, UniProt P41743 1-596)
chain: MPTQRDSSTMSHTVAGGGSGDHSHQVRVKAYYRGDIMITHFEPSISFEGLCNEVRDMCSFDNEQLFTMKWIDEEGDPCTVSSQLELEEAFRLYELNKDSELLIHVFPCVPERPGMPCPGEDKSIYRRGARRWRKLYCANGHTFQAKRFNRRAHCAICTDRIWGLGRQGYKCINCKLLVHKKCHKLVTIECGRHSLPQEPVMPMDQSSMHSDHAQTVIPYNPSSHESLDQVGEEKEAMNTRESGKASSSLGLQDFDLLRVIGRGSYAKVLLVRLKKTDRIYAMKVVKKELVNDDEDIDWVQTEKHVFEQASNHPFLVGLHSCFQTESRLFFVIEYVNGGDLMFHMQRQRKLPEEHARFYSAEISLALNYLHERGIIYRDLKLDNVLLDSEGHIKLTDYGMCKEGLRPGDTTSTFCGTPNYIAPEILRGEDYGFSVDWWALGVLMFEMMAGRSPFDIVGSSDNPDQNTEDYLFQVILEKQIRIPRSLSVKAASVLKSFLNKDPKERLGCHPQTGFADIQGHPFFRNVDWDMMEQKQVVPPFKPNISGEFGLDNFDSQFTNEPVQLTPDDDDIVRKIDQSEFEGFEYINPLLMSAEECV
binding: binds
